The values that follow come from article PMC6307386.

Chains of the proteins cited; added tags and fusions are not shown.
UniProt Q9BYW2: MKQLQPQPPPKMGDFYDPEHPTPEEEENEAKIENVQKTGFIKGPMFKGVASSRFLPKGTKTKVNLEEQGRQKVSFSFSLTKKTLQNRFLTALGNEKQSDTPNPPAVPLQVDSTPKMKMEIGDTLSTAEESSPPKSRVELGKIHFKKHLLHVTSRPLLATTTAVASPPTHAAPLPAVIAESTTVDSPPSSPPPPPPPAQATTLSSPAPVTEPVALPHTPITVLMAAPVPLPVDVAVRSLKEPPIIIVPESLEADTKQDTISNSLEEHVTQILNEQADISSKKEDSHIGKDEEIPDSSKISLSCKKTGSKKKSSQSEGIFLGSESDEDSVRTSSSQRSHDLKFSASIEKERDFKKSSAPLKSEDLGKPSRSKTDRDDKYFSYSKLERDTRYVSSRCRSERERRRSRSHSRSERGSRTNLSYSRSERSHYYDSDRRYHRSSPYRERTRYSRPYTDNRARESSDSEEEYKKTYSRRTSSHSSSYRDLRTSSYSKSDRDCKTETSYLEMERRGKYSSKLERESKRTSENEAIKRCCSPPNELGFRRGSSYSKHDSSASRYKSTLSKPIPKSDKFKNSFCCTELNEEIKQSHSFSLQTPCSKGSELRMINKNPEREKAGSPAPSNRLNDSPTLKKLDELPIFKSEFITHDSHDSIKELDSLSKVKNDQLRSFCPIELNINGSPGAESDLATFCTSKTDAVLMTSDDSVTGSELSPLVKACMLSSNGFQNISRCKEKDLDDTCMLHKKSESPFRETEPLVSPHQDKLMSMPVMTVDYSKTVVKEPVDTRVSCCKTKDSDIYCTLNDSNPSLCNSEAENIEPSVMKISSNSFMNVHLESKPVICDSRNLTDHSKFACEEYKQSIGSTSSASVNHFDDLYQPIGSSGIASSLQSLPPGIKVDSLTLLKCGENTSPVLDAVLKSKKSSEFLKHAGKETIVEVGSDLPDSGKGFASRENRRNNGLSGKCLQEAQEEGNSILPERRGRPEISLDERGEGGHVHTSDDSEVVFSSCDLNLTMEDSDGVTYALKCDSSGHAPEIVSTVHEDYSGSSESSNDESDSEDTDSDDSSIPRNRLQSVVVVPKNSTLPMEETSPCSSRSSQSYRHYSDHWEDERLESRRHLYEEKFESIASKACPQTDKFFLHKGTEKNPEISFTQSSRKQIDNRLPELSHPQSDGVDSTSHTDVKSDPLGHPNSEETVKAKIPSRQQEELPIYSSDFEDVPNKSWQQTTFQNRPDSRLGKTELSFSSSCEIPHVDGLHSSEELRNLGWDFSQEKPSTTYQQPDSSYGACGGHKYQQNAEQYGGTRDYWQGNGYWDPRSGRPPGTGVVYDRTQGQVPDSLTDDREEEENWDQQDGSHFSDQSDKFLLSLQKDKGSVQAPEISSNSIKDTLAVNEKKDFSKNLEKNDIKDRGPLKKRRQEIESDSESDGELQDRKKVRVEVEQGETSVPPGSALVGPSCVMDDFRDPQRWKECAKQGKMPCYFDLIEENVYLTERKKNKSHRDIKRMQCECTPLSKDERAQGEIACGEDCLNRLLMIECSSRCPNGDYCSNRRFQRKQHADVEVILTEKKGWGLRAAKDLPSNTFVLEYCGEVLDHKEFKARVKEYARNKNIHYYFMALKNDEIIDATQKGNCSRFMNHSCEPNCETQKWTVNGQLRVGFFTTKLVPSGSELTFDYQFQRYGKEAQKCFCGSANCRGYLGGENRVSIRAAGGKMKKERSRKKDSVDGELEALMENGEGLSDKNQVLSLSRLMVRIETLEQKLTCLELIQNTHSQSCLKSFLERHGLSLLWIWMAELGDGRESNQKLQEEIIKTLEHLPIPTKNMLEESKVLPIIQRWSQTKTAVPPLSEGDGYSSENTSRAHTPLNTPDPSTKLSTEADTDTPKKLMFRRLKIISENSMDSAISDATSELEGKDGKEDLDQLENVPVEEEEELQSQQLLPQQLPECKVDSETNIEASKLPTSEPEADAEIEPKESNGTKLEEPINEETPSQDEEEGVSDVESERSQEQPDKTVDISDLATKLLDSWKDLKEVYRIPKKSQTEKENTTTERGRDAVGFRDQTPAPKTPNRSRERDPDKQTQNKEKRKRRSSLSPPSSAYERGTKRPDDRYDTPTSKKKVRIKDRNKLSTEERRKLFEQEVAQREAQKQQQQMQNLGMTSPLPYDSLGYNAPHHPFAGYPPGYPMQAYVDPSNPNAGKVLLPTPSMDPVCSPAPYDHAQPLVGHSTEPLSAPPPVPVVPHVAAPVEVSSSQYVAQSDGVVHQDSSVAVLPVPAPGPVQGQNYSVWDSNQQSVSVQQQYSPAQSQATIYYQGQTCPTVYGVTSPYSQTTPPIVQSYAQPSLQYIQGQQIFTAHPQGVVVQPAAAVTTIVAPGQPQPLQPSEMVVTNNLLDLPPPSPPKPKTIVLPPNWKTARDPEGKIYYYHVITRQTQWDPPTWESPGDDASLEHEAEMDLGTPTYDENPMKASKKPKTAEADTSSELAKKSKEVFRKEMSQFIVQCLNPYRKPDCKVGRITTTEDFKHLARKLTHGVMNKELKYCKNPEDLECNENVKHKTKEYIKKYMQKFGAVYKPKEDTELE

No constants are given. Whether binding was seen depends on the method and setting. Binding seen in cells or lysates may run through a third protein. Some entries that bind do so weakly or less than the wild type.

This assay has as its target SETD2 (human (endogenous in HBMMSCs)) (UniProt Q9BYW2). The assay is described as follows: co-IP; endogenous proteins of HBMMSCs infected with rLV or rLV-miR675 (also with P62 knock-down or rLV-Cas9-P62, or with pGFP-V-RS-KDM4A); IP with anti-SETD2, anti-hMSH6 or anti-SKP2, then western blotting; IgG IP as negative control; procedure by reference 42. In general terms: In western blotting, separated proteins are transferred to a membrane and probed.

Regarding “polyubiquitin-binding protein p62 (from UniProt Q13501 1-440)”, the binding result is “binds”.
